Laboratory results as given in patent US7056685B1, “Receptor ligands and methods of modulating receptors” (Amgen Inc., priority 2002, dated 2006).
For at least one compound, name, drawing or mass did not settle the structure.

Target: T1, GPR43 (Homo sapiens, UniProt O15552)
T1 sequence (O15552 1-330): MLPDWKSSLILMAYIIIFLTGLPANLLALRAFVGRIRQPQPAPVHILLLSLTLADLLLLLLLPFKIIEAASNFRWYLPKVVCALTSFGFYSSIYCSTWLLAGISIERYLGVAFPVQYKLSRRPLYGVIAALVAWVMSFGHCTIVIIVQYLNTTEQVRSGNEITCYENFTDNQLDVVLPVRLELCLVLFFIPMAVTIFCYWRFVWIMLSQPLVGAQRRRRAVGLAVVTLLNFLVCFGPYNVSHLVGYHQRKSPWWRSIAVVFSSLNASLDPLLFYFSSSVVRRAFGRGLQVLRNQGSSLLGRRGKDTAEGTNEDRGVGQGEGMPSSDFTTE
Experiment: GPR43 activation by fatty acids (FIG. 2)
Assay type: cell-based
Excerpt: An activated or inhibited G-protein will in turn alter the properties of downstream effectors such as proteins, enzymes, and channels. The classic examples are the activation of cGMP phosphodiesterase by transducin in the visual system, adenylate cyclase by the stimulatory G-protein, phospholipase C by Gq and other cognate G proteins, and modulation of diverse channels by Gi and other G proteins. Downstream consequences such as generation of diacyl glycerol and IP3 by phospholipase C, and in turn, for calcium mobilization e.g., by IP3 (further discussed below) can also be examined. Thus, modulators can be evaluated for the ability to stimulate or inhibit ligand-mediated downstream effects. […] Candidate modulators may be assessed for the ability to inhibit inositol phosphate accumulation and/or calcium mobilization induced by the natural ligand, e.g., β-alanine (TGR2), a 2–3 carbon chain fatty acid (GPR43), a medium or long chain fatty acid (GPR40), succinic acid (TGR18), or a-ketoglutaric acid (TGR164).
A battery of fatty acids were tested for the ability to activate GPR43.

With `CCCCCCCCC(=O)O` [nonanoate] the “activation of GPR43” value was “do not activate”.
